Source: PubChem BioAssay (NCATS)
This list was built around the results that the source calls inconclusive (neither active nor inactive); the mix of calls is not that of the screen. Where the call is inconclusive, the potency comes from a doubtful curve fit. Activity calls are given as the source filed them. Calls come from the whole dose curve; as a rule, active = well fitted cell-killing curve with a large enough effect; inconclusive = small, poorly fitted or top-dose-only effect, or effect the other way; inactive = no such curve, though single readings can be large or run the other way.

What was measured:
[1] = Quantitative High-Throughput drug screen in 47 multiple myeloma cell lines against the NCATS MIPE library collection: Delta47_JCRB cell viability assay (AID 1918925; note: nearly all actives have a fitted effect of over 45% in size); details: Delta47 myeloma viability, CellTiter-Glo ATP, 48 h; viability (% of DMSO): at 45.8 µM (top of the series) unless noted
Outline: (§1)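 Myeloma cells (500 per well) were exposed to MIPE 4.0 compounds by pin transfer and incubated 48 hours at 37C, 5% CO2. Viability was read as ATP by CellTiter-Glo luminescence, normalised to DMSO (100%) and media-only (0%) wells.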

[2] = Quantitative High-Throughput drug screen in 47 multiple myeloma cell lines against the NCATS MIPE library collection: AMO1_DSMZ cell viability assay (AID 1918927; note: nearly all actives have a fitted effect of over 30% in size); details: AMO1 myeloma cells viability, CellTiter-Glo ATP luminescence, 48 h; series mostly up to 45.8 µM
Outline: as §1

[3] = Quantitative High-Throughput drug screen in 47 multiple myeloma cell lines against the NCATS MIPE library collection: Karpas620_DSMZ cell viability assay (AID 1918959); details: Karpas620 myeloma viability, CellTiter-Glo ATP luminescence, 48 h; series mostly up to 45.8 µM; note: nearly all actives have a fitted effect of over 30% in size
Outline: as §1

[4] = Quantitative High-Throughput drug screen in 47 multiple myeloma cell lines against the NCATS MIPE library collection: Karpas417_ECACC cell viability assay (AID 1918961); details: Karpas417 myeloma viability, CellTiter-Glo ATP luminescence, 48 h; viability (% of DMSO): at 45.8 µM (top of the series) unless noted
Outline: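 CellTiter-Glo ATP luminescence gave viability after 48 h compound treatment at 37C of 500 multiple myeloma cells per well. Normalisation used DMSO-only wells as 100% and media-only wells as 0% viability; primary qHTS of approved and investigational drugs.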

[5] = Quantitative High-Throughput drug screen in 47 multiple myeloma cell lines against the NCATS MIPE library collection: ARP1_JJKsccF8 cell viability assay (AID 1918928; note: nearly all actives have a fitted effect of over 40% in size); details: ARP1 myeloma cells viability, CellTiter-Glo ATP, 48 h; viability: at 45.8 µM (top of the series)
Outline: (§2)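 500 cells/well; MIPE 4.0 library pinned in; 48 h, 37 °C, 5% CO2; CellTiter-Glo ATP luminescence. Controls: DMSO = 100% viability, medium only = 0%.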

[6] = Quantitative High-Throughput drug screen in 47 multiple myeloma cell lines against the NCATS MIPE library collection: ARD_JJKsccE7 cell viability assay (AID 1918929); details: ARD myeloma cell line viability, CellTiter-Glo, 48 h; series mostly up to 45.8 µM
Outline: as §1

[7] = Quantitative High-Throughput drug screen in 47 multiple myeloma cell lines against the NCATS MIPE library collection: KHM11_PLB cell viability assay (AID 1918962); details: KHM11 myeloma cell viability, CellTiter-Glo ATP luminescence, 48 h; viability, % of DMSO control: at 45.8 µM (top of the series); note: nearly all actives have a fitted effect of over 35% in size
Outline: as §1

[8] = Quantitative High-Throughput drug screen in 47 multiple myeloma cell lines against the NCATS MIPE library collection: EJM_DSMZ cell viability assay (AID 1918926; note: nearly all actives have a fitted effect of over 30% in size); details: EJM myeloma cell viability, CellTiter-Glo ATP, 48 h; viability, % of control: at 45.8 µM (top of the series)
Outline: as §1

[9] = Quantitative High-Throughput drug screen in 47 multiple myeloma cell lines against the NCATS MIPE library collection: KMM1_JCRB cell viability assay (AID 1918960); details: KMM1 myeloma viability, CellTiter-Glo ATP luminescence, 48 h; viability (% of DMSO): at 45.8 µM (top of the series); note: nearly all actives have a fitted effect of over 30% in size
Outline: as §2
Potency is the fitted concentration of half-maximal effect.

C[C@]1(c2nc3c(C(N)=O)cccc3[nH]2)CCCN1
Potency [1]: inconclusive: 20.9 µM [cytotoxic, partial curve] | Potency [2]: inconclusive: 0.0015 µM [rising, full curve, poor fit] | Potency [3]: inactive | Potency [4]: inconclusive: 0.0105 µM [rising, full curve, poor fit]

CCCCC(C)(C)[C@H](O)C=C[C@H]1[C@H](O)CC(=O)[C@H]1CC=CCCCC(=O)O
Potency [1]: inconclusive: 18.7 µM [cytotoxic, partial curve, poor fit] | Potency [2]: inconclusive: 0.235 µM [cytotoxic, partial curve, poor fit] | Potency [5]: active: 23.5 µM | Potency [6]: inactive | Potency [4]: inconclusive: 4.18 µM [rising, partial curve, poor fit] | Potency [7]: inconclusive: 11.8 µM [cytotoxic, full curve, poor fit]

NC(=O)NN=Cc1ccc([N+](=O)[O-])o1
Potency [1]: inconclusive: 20.9 µM [cytotoxic, partial curve, poor fit] | Potency [8]: inconclusive: 33.2 µM [cytotoxic, partial curve, poor fit] | Potency [5]: inconclusive: 37.2 µM [cytotoxic, single point] | Potency [6]: inconclusive: 29.6 µM [cytotoxic, single point] | Potency [4]: inconclusive: 23.5 µM [cytotoxic, partial curve, poor fit] | Potency [7]: inconclusive: 23.5 µM [cytotoxic, partial curve, poor fit]

COc1ccc2cccc(CCNC(C)=O)c2c1
Potency [1]: inactive | Potency [8]: inactive | Potency [5]: inactive | Potency [6]: inconclusive: 0.0013 µM [rising, full curve, poor fit] | Potency [4]: inconclusive: 0.0418 µM [rising, full curve, poor fit]

O=C(NOCC(O)CO)c1cc(Br)c(F)c(F)c1Nc1ccc(I)cc1F (stereo not given)
Potency [1]: inconclusive: 37.2 µM [cytotoxic, single point] | Potency [2]: inconclusive: 20.9 µM [rising, single point] | Potency [5]: inconclusive: 16.6 µM [cytotoxic, partial curve, poor fit] | Potency [6]: inconclusive: 1.32 µM [rising, full curve] | Potency [3]: inactive | Potency [4]: inconclusive: 1.18 µM [rising, full curve, poor fit] | Potency [7]: inconclusive: 0.0209 µM [cytotoxic, full curve]

O=c1ccn([C@@H]2O[C@H](CO)[C@H](O)[C@H]2O)c(=O)[nH]1
Potency [1]: inconclusive: 9.35 µM [cytotoxic, partial curve, poor fit] | Potency [2]: inconclusive: 37.2 µM [cytotoxic, single point] | Potency [5]: inconclusive: 37.2 µM [cytotoxic, single point] | Potency [6]: inconclusive: 20.9 µM [cytotoxic, single point] | Potency [4]: inconclusive: 0.0526 µM [cytotoxic, full curve, poor fit] | Potency [7]: inactive

Clc1ccc(-c2nc3sccn3c2C=NOCc2ccc(Cl)c(Cl)c2)cc1
Potency [1]: inconclusive: 0.0148 µM [cytotoxic, full curve, poor fit] | Potency [8]: inconclusive: 0.003 µM [rising, full curve, poor fit] | Potency [6]: inconclusive: 0.001 µM [cytotoxic] | Potency [9]: inactive | Potency [4]: inactive | Potency [7]: inactive

CC[C@H]1OC(=O)[C@H](C)[C@@H](O[C@H]2C[C@@](C)(OC)[C@@H](O)[C@H](C)O2)[C@H](C)[C@@H](O[C@@H]2O[C@H](C)C[C@H](N(C)C)[C@@H]2O)[C@](C)(O)C[C@@H](C)CN(C)[C@H](C)[C@@H](O)[C@]1(C)O
Potency [1]: inconclusive: 0.0033 µM [cytotoxic, full curve, poor fit] | Potency [8]: inactive | Potency [5]: inactive | Potency [4]: inconclusive: 3.72 µM [rising, partial curve, poor fit] | Potency [7]: inconclusive: 0.418 µM [cytotoxic, full curve, poor fit]

NC(=O)c1ncn([C@@H]2O[C@H](CO)[C@@H](O)[C@@H]2O)c1N
Potency [1]: inconclusive: 1.66 µM [cytotoxic, full curve, poor fit] | Potency [2]: inactive | Potency [5]: inactive | Potency [4]: inactive | Potency [7]: inconclusive: 3.32 µM [cytotoxic, full curve, poor fit]

C[C@H]1[C@H](NC(=O)C(=NOC(C)(C)C(=O)O)c2csc(N)n2)C(=O)N1S(=O)(=O)O
Potency [1]: inactive | Potency [2]: inactive | Potency [5]: inconclusive: 23.5 µM [cytotoxic, partial curve, poor fit] | Potency [6]: inactive | Potency [4]: inconclusive: 11.8 µM [rising, partial curve, poor fit]

COc1ccc(CC2SC(=O)NC2=O)cc1C(=O)NCc1ccc(C(F)(F)F)cc1 (stereo not given)
Potency [1]: inactive | Potency [8]: inactive | Potency [6]: inconclusive: 26.4 µM [cytotoxic, single point] | Potency [3]: inconclusive: 20.9 µM [cytotoxic, partial curve, poor fit] | Potency [9]: inconclusive: 5.9 µM [cytotoxic, partial curve] | Potency [7]: inactive

CN(C)CCc1c[nH]c2ccc(Cn3cncn3)cc12
Potency [1]: inactive | Potency [2]: inconclusive: 20.9 µM [cytotoxic, partial curve] | Potency [5]: inactive | Potency [6]: inconclusive: 37.2 µM [cytotoxic, single point] | Potency [3]: inconclusive: 23.5 µM [cytotoxic, single point] | Potency [9]: inconclusive: 13.2 µM [cytotoxic, partial curve] | viability (% of DMSO) [4]: inconclusive: 42.3% [cytotoxic] | Potency [7]: inconclusive: 0.0093 µM [rising, full curve, poor fit]

COCCNCCCn1c(C(=O)CF)c(-c2ccc(C)cc2)c2c(N)ncnc21
Potency [1]: inactive | Potency [2]: inconclusive: 37.2 µM [cytotoxic, single point] | Potency [5]: inconclusive: 9.35 µM [cytotoxic, single point] | Potency [6]: inconclusive: 0.0662 µM [cytotoxic, full curve, poor fit] | Potency [9]: inconclusive: 0.118 µM [cytotoxic, full curve, poor fit] | Potency [4]: inconclusive: 33.2 µM [rising, partial curve, poor fit] | Potency [7]: inconclusive: 37.2 µM [cytotoxic, single point]

COc1cc([C@@H]2c3cc4c(cc3[C@H](O)[C@H]3COC(=O)[C@H]23)OCO4)cc(OC)c1OC
Potency [1]: inactive | Potency [2]: inactive | Potency [5]: inactive | Potency [3]: inactive | Potency [9]: active: 0.001 µM | Potency [4]: inactive | Potency [7]: inactive

OC(CN1CCN(c2cccc(Cl)c2)CC1)C(c1ccccc1)c1ccccc1 (stereo not given)
Potency [1]: inconclusive: 0.0026 µM [rising, full curve, poor fit] | Potency [2]: inconclusive: 0.003 µM [rising, full curve, poor fit] | Potency [5]: inconclusive: 0.0033 µM [rising, full curve] | Potency [6]: inactive | Potency [3]: inconclusive: 0.0033 µM [rising, full curve, poor fit] | Potency [4]: inconclusive: 3.32 µM [cytotoxic, partial curve, poor fit] | Potency [7]: inconclusive: 0.148 µM [rising, full curve]

COC(c1ccccc1)(c1ccccc1)[C@H](Oc1nc(C)cc(C)n1)C(=O)O
Potency [1]: inactive | Potency [2]: inactive | Potency [5]: inactive | Potency [4]: inactive | Potency [7]: inactive

CC(C)N(CCCNC(=O)Nc1ccc(C(C)(C)C)cc1)C[C@H]1O[C@@H](n2cc(Br)c3c(N)ncnc32)[C@H](O)[C@H]1O
Potency [1]: active: 16.6 µM | Potency [8]: inconclusive: 18.7 µM [cytotoxic, partial curve, poor fit] | Potency [2]: inactive | Potency [3]: inconclusive: 0.372 µM [cytotoxic, partial curve, poor fit] | Potency [4]: inconclusive: 8.33 µM [rising, full curve, poor fit] | Potency [7]: inconclusive: 20.9 µM [cytotoxic, partial curve, poor fit]

N=C1SC(=Cc2ccc(-c3ccc4c(c3)C(=O)NC4=O)o2)C(=O)N1c1ccc(Br)cc1
Potency [1]: inactive | Potency [2]: inactive | Potency [6]: inconclusive: 0.0743 µM [cytotoxic, full curve, poor fit] | Potency [9]: inconclusive: 0.105 µM [cytotoxic, full curve, poor fit] | Potency [4]: inconclusive: 10.5 µM [rising, full curve, poor fit] | Potency [7]: inconclusive: 0.059 µM [cytotoxic, full curve, poor fit]

CN(C)C(=O)C(CCN1CCC(O)(c2ccc(Cl)cc2)CC1)(c1ccccc1)c1ccccc1
Potency [1]: active: 20.9 µM | Potency [8]: inconclusive: 14.8 µM [cytotoxic, partial curve] | Potency [6]: inactive | Potency [3]: inactive | Potency [4]: inconclusive: 0.0083 µM [rising, full curve, poor fit] | Potency [7]: active: 18.7 µM

CO[C@@H](C(=O)N1Cc2[nH]nc(NC(=O)c3ccc(N4CCN(C)CC4)cc3)c2C1)c1ccccc1
Potency [1]: active: 6.62 µM | Potency [8]: inconclusive: 18.7 µM [cytotoxic, partial curve] | Potency [3]: inconclusive: 33.2 µM [cytotoxic, single point] | Potency [9]: active: 7.43 µM | Potency [4]: inconclusive: 6.62 µM [cytotoxic, partial curve] | Potency [7]: active: 10.5 µM

CN(C[C@@H]1COCCO1)S(=O)(=O)Nc1ccc2ccc3ncc(-c4cnn(C)c4)cc3c(=O)c2c1
Potency [1]: inconclusive: 16.6 µM [cytotoxic, partial curve, poor fit] | Potency [2]: inconclusive: 11.8 µM [cytotoxic, partial curve] | Potency [5]: inconclusive: 8.33 µM [cytotoxic, partial curve, poor fit] | Potency [6]: inconclusive: 5.9 µM [cytotoxic, partial curve] | Potency [3]: inconclusive: 5.26 µM [cytotoxic, full curve] | viability (% of DMSO) [4]: inconclusive: 4.05% [cytotoxic]
